# The whole screen tested about 320,000 compounds, of which about 22,000 (6.9%) were called active. This list was built around the results that the source calls inconclusive (neither active nor inactive); the mix of calls is not that of the screen. Calls follow the shape of the dose curve; as a rule, active = well fitted inhibition curve with a large enough effect; inconclusive = small, poorly fitted or top-dose-only effect, or another doubt; inactive = no such curve, though single readings can be large or run the other way. Potencies beside an inconclusive call are fits to weak or partial responses and may not hold up.
# Test: Primary qHTS for delayed death inhibitors of the malarial parasite plastid, 96 hour incubation
# Conditions: P. falciparum luciferase reporter growth; series mostly up to 28.7 µM
# Summary of the method: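 Infected RBCs, 2% Hct / 0.05% parasitemia final; luciferase-reporter P. falciparum; cpd 96 h, 37 C, 5% CO2; luciferase detection reagent; luminescence.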
# Potency is read from the fitted curve at half-maximal effect.
row,SMILES,Potency
1,Cn1c(-c2ccc(F)cc2)cnc1NCc1cccc(F)c1,inactive
2,Fc1ccc(NC(=S)Nc2cccnc2)cc1Cl,"inconclusive: 18.5 µM [inhibitor, single point]"
3,O=C(CN1CCN(c2ccccc2O)CC1)Nc1ccccc1C(=O)NCCc1ccccc1,inactive
4,Cc1cc[n+](-c2[nH]c(=O)sc2/C=N/N=C(\[O-])c2ccncc2)cc1,"inconclusive: 18.5 µM [inhibitor, single point]"
5,CCN(C(=O)c1cc2c(=O)n3ccccc3nc2n1CCCOC)C1CCCCC1,active: 14.7 µM
6,Cc1nn(CC(C)C)c(=S)[nH]c1=O,"inconclusive: 2.08 µM [inhibitor, full curve, poor fit]"
7,COc1ccc2c(c1)c(C(C)=O)c(C)n2-c1ccccc1,"inconclusive: 13.1 µM [inhibitor, partial curve, poor fit]"
8,COc1ccccc1CN1CCCC(C(=O)c2ccccc2OC)C1 (stereo unspecified),"inconclusive: 16.5 µM [inhibitor, single point]"
9,Cc1ccc(NC(=O)CCNS(=O)(=O)c2ccccc2)c(C(=O)c2ccccc2)c1,"inconclusive: 18.5 µM [inhibitor, single point]"
10,COc1ccc2cc3cc(C(=O)NCCC(C)C)oc3nc2c1,inactive
11,O=C(NNC(=O)c1cc(-c2cccc(Br)c2)nc2ccccc12)c1csc(N2CCOCC2)n1,inactive
12,COc1ccc(NC(=O)CSc2c3c(nc4ccccc24)CCCC3)c(OC)c1,inactive
13,CC1CC(C)CN(C(=O)CCC(=O)Nc2nnc(C3CCCCC3)s2)C1 (stereo unspecified),"inconclusive: 11.7 µM [inhibitor, partial curve]"
14,CCOc1cccc(/C=N/N=C/c2cccc(OCC)c2O)c1O,inactive
15,Cc1ccccc1CSCCNC(=O)c1ccc(N(C)S(=O)(=O)c2ccccc2)cc1,inactive
16,COc1ccc(CC(=O)Nc2cccc(C(C)=O)c2)cc1S(=O)(=O)N1CCOCC1,inactive
17,CCC1(c2ccccc2)C(=O)NC(=O)N(C(=O)c2ccccc2)C1=O (stereo unspecified),inactive
18,Cc1ccccc1-n1c(C)n[nH]c1=S,"inconclusive: 0.522 µM [inhibitor, full curve, poor fit]"

row,SMILES,Potency
1,CCOc1ccccc1Oc1cn[nH]c1-c1ccc(O)cc1O,active: 9.28 µM
2,O=C1/C(=C/c2cccs2)SC(=S)N1NS(=O)(=O)c1ccccc1,inactive
3,Oc1ccccc1CN1CCCC(N2CCN(c3cccc(C(F)(F)F)c3)CC2)C1 (stereo unspecified),inactive
4,CCOC(=O)C1CN(S(=O)(=O)c2ccc(OC)cc2)c2cc(Cl)ccc2O1 (stereo unspecified),inactive
5,CCOC(=O)CNC(=O)Nc1ccccc1C(=O)OC,"inconclusive: 1.31 µM [inhibitor, partial curve, poor fit]"
6,CCOC(=O)c1ccc(S(=O)(=O)NC2CCC(C)CC2)cc1 (stereo unspecified),inactive
7,Cc1cccc(COC(=O)CCCNC(=O)c2ccc(Cl)cc2)c1,"inconclusive: 13.1 µM [inhibitor, single point]"
8,CC(C)CC(=O)c1c[nH]c(C(=O)O)c1,inactive
9,COc1ccccc1OCCC(=O)OCC(=O)NC(C)c1ccccc1 (stereo unspecified),"inconclusive: 18.5 µM [inhibitor, partial curve, poor fit]"
10,CCOC1CC(C)(C)NC(=S)N1 (stereo unspecified),"inconclusive: 0.0329 µM [inhibitor, full curve, poor fit]"
11,CC(C)c1ccc(C2/C(=C(\O)c3ccc4c(c3)OCCO4)C(=O)C(=O)N2CCN2CCOCC2)cc1 (stereo unspecified),"inconclusive: 18.5 µM [inhibitor, single point]"
12,Cc1cc(OCC(=O)NCC(O)c2ccccc2)c2c(C)cc(=O)oc2c1 (stereo unspecified),"inconclusive: 18.5 µM [inhibitor, single point]"
13,CCc1ccc(-c2csc3ncn(CC(=O)N4CCOCC4)c(=O)c23)cc1,"inconclusive: 7.38 µM [inhibitor, partial curve, poor fit]"
14,COc1ccc(C(=O)COC(=O)c2cc(S(=O)(=O)N3CCCCC3)ccc2N2CCOCC2)c(OC)c1,active: 9.28 µM
15,CCn1ccc(C(=O)Nc2cccc(Cl)c2)n1,"inconclusive: 18.5 µM [inhibitor, partial curve, poor fit]"
16,CC(Oc1ccc2ccc(=O)oc2c1)C(=O)NCC1CCC(C(=O)O)CC1 (stereo unspecified),"inconclusive: 18.5 µM [inhibitor, single point]"
17,O=C(NC1C(=O)NNC1c1ccc(Cl)cc1)c1ccc(F)cc1 (stereo unspecified),inactive
18,COc1ccc(/C=N/NC(=O)C2CC2)c(OC)c1OC,inactive

# Single values from the list:
# In Potency, `CCOC(=O)CNC(=O)Nc1ccccc1C(=O)OC` shows inconclusive: 1.31 µM [inhibitor, partial curve, poor fit]
# In Potency, `O=C(NC1C(=O)NNC1c1ccc(Cl)cc1)c1ccc(F)cc1` (stereo unspecified) shows inactive

# — PubChem BioAssay AID504834 (National Center for Advancing Translational Sciences (NCATS), 2011)
